# Laboratory results taken from PubChem BioAssay (NCATS).
# Several values for one entry are separate records, joined by “and”; a condition that tells them apart may be missing. Equal values may be shown once. This list was built around the results that the source calls inconclusive (neither active nor inactive); the mix of calls is not that of the screen. A potency beside an inconclusive call is a rough fit, not a confirmed value. Activity calls are given as the source filed them. Calls follow the shape of the dose curve; as a rule, active = well fitted curve in the direction sought with a large enough effect; inconclusive = small, poorly fitted or top-dose-only effect, or another doubt; inactive = no such curve, though single readings can be large; an effect the other way counts as inactive or inconclusive.
# Legend:
# [1] = Quantitative High-Throughput drug screen in 47 multiple myeloma cell lines against the NCATS MIPE library collection: FR4_PLB cell viability assay (AID 1918924; also: nearly all actives have a fitted effect of over 35% in size); conditions: FR4_PLB myeloma cells viability, CellTiter-Glo ATP, 48 h; series mostly up to 45.8 µM
# Procedure, shortened: (§1)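 CellTiter-Glo luminescence (ATP) after 48 h compound exposure, 37C/5% CO2; 500 cells/well; MIPE 4.0 approved/investigational drugs pinned in; DMSO = 100%, media only = 0% viability.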
# [2] = Quantitative High-Throughput drug screen in 47 multiple myeloma cell lines against the NCATS MIPE library collection: EJM_DSMZ cell viability assay (AID 1918926; also: nearly all actives have a fitted effect of over 30% in size); conditions: EJM myeloma cell viability, CellTiter-Glo ATP, 48 h; series mostly up to 45.8 µM
# Procedure, shortened: (§2)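 Luminescent ATP measurement with CellTiter-Glo gives viability, scaled between DMSO-only wells (100%) and media-only wells (0%). Cells, 500 per well, faced library compounds for 48 hours at 37C.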
# [3] = Quantitative High-Throughput drug screen in 47 multiple myeloma cell lines against the NCATS MIPE library collection: AMO1_DSMZ cell viability assay (AID 1918927; also: nearly all actives have a fitted effect of over 30% in size); conditions: AMO1 myeloma cells viability, CellTiter-Glo ATP luminescence, 48 h; series mostly up to 45.8 µM
# Procedure, shortened: as §2
# [4] = Quantitative High-Throughput drug screen in 47 multiple myeloma cell lines against the NCATS MIPE library collection: ARP1_JJKsccF8 cell viability assay (AID 1918928; also: nearly all actives have a fitted effect of over 40% in size); conditions: ARP1 myeloma cells viability, CellTiter-Glo ATP, 48 h; series mostly up to 45.8 µM
# Procedure, shortened: (§3)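 ATP readout (CellTiter-Glo), 48 h drug incubation, 37 °C/5% CO2, 500 cells per well; normalisation to DMSO (100%) and media-only (0%) controls.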
# [5] = Quantitative High-Throughput drug screen in 47 multiple myeloma cell lines against the NCATS MIPE library collection: ARD_JJKsccE7 cell viability assay (AID 1918929); conditions: ARD myeloma cell line viability, CellTiter-Glo, 48 h; viability: at 45.8 µM (top of the series)
# Procedure, shortened: as §2
# [6] = Quantitative High-Throughput drug screen in 47 multiple myeloma cell lines against the NCATS MIPE library collection: Karpas620_DSMZ cell viability assay (AID 1918959); conditions: Karpas620 myeloma viability, CellTiter-Glo ATP luminescence, 48 h; viability (% of DMSO): at 45.8 µM (top of the series); also: nearly all actives have a fitted effect of over 30% in size
# Procedure, shortened: as §1
# [7] = Quantitative High-Throughput drug screen in 47 multiple myeloma cell lines against the NCATS MIPE library collection: KMM1_JCRB cell viability assay (AID 1918960); conditions: KMM1 myeloma viability, CellTiter-Glo ATP luminescence, 48 h; viability (% of DMSO): at 45.8 µM (top of the series); also: nearly all actives have a fitted effect of over 30% in size;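 as to viability (% of DMSO): 100% = DMSO-treated cells and 0% = medium-only wells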
# Procedure, shortened: as §3
# [8] = Quantitative High-Throughput drug screen in 47 multiple myeloma cell lines against the NCATS MIPE library collection: Karpas417_ECACC cell viability assay (AID 1918961); conditions: Karpas417 myeloma viability, CellTiter-Glo ATP luminescence, 48 h; viability (% of DMSO): at 45.8 µM (top of the series)
# Procedure, shortened: (§4)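 Myeloma cells (500 per well) were exposed to MIPE 4.0 compounds by pin transfer and incubated 48 hours at 37C, 5% CO2. Viability was read as ATP by CellTiter-Glo luminescence, normalised to DMSO (100%) and media-only (0%) wells.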
# [9] = Quantitative High-Throughput drug screen in 47 multiple myeloma cell lines against the NCATS MIPE library collection: KHM11_PLB cell viability assay (AID 1918962); conditions: KHM11 myeloma cell viability, CellTiter-Glo ATP luminescence, 48 h; viability, % of DMSO control: at 45.8 µM (top of the series); also: nearly all actives have a fitted effect of over 35% in size
# Procedure, shortened: as §1
# [10] = Quantitative High-Throughput drug screen in 47 multiple myeloma cell lines against the NCATS MIPE library collection: JIM3_ECACC cell viability assay (AID 1918963; also: nearly all actives have a fitted effect of over 35% in size); conditions: JIM3 myeloma viability, CellTiter-Glo ATP, 48 h; series mostly up to 45.8 µM
# Procedure, shortened: as §1
# [11] = Quantitative High-Throughput drug screen in 47 multiple myeloma cell lines against the NCATS MIPE library collection: JIM1_ECACC cell viability assay (AID 1918964); conditions: JIM1 myeloma viability, CellTiter-Glo ATP luminescence, 48 h; viability (% of DMSO): at 45.8 µM (top of the series)
# Procedure, shortened: as §2
# [12] = Quantitative High-Throughput drug screen in 47 multiple myeloma cell lines against the NCATS MIPE library collection: INA6_PLB cell viability assay (AID 1918965; also: nearly all actives have a fitted effect of over 55% in size); conditions: INA6 myeloma viability, CellTiter-Glo ATP luminescence, 48 h; viability (% of control): at 45.8 µM (top of the series)
# Procedure, shortened: as §4
# [13] = Quantitative High-Throughput drug screen in 47 multiple myeloma cell lines against the NCATS MIPE library collection: JJN3_DSMZ cell viability assay (AID 1918966; also: nearly all actives have a fitted effect of over 50% in size); conditions: JJN3 myeloma cells viability, CellTiter-Glo ATP, 48 h; viability, % of DMSO: at 45.8 µM (top of the series)
# Procedure, shortened: as §2
# [14] = Quantitative High-Throughput drug screen in 47 multiple myeloma cell lines against the NCATS MIPE library collection: H1112_PLB cell viability assay (AID 1918967; also: nearly all actives have a fitted effect of over 30% in size); conditions: H1112 myeloma cells viability, ATP luminescence, 48 h; series mostly up to 45.8 µM
# Procedure, shortened: as §2
# [15] = Quantitative High-Throughput drug screen in 47 multiple myeloma cell lines against the NCATS MIPE library collection: Delta47_JCRB cell viability assay (AID 1918925; also: nearly all actives have a fitted effect of over 45% in size); conditions: Delta47 myeloma viability, CellTiter-Glo ATP, 48 h; viability (% of DMSO): at 45.8 µM (top of the series)
# Procedure, shortened: as §2
# [16] = Quantitative High-Throughput drug screen in 47 multiple myeloma cell lines against the NCATS MIPE library collection: KMS27_JCRB cell viability assay (AID 1918970); conditions: KMS27 myeloma cells, CellTiter-Glo ATP viability, 48 h; viability (% of DMSO): at 45.8 µM (top of the series); also: nearly all actives have a fitted effect of over 30% in size
# Procedure, shortened: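 Luminescent ATP read-out (CellTiter-Glo, 5 min at room temperature) after 48 h compound exposure of 500 KMS27_JCRB cells per well; DMSO wells define full viability and media-only wells zero.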
# [17] = Quantitative High-Throughput drug screen in 47 multiple myeloma cell lines against the NCATS MIPE library collection: Karpas25_ECACC cell viability assay (AID 1918968; also: nearly all actives have a fitted effect of over 35% in size); conditions: Karpas25 myeloma viability, CellTiter-Glo ATP, 48 h; viability (% of control): at 45.8 µM (top of the series)
# Procedure, shortened: as §2
# Potency is read from the fitted curve at half-maximal effect.
Compound,Potency [1],Potency [2],Potency [3],Potency [4],Potency [5],Potency [6],Potency [7],Potency [8],Potency [9],Potency [10],Potency [11],Potency [12],Potency [13],Potency [14],Potency [15],Potency [16],Potency [17],viability (% of control) [12],viability (% of DMSO) [11]
Cc1cc2cc3c(C)cc(=O)oc3c(C)c2o1,"inconclusive: 33.2 µM [cytotoxic, single point]",active: 5.9 µM,"inconclusive: 10.5 µM [cytotoxic, full curve]","inconclusive: 23.5 µM [cytotoxic, single point]","inconclusive: 37.2 µM [cytotoxic, partial curve, poor fit]",active: 23.5 µM,"inconclusive: 14.8 µM [cytotoxic, partial curve]","inconclusive: 20.9 µM [cytotoxic, partial curve, poor fit]","inconclusive: 37.2 µM [cytotoxic, single point]","inconclusive: 37.2 µM [cytotoxic, single point]","inconclusive: 20.9 µM [cytotoxic, partial curve, poor fit]","inconclusive: 33.2 µM [cytotoxic, single point]",active: 5.26 µM,"inconclusive: 33.2 µM [cytotoxic, single point]",,,,,
COc1ccc(-c2cc(=O)c3c(O)cc(O)cc3o2)cc1O,"inconclusive: 23.5 µM [cytotoxic, partial curve]",,,"inconclusive: 33.2 µM [cytotoxic, single point]",,"inconclusive: 11.8 µM [cytotoxic, partial curve, poor fit]",,,,active: 7.43 µM,active: 9.35 µM,,"inconclusive: 23.5 µM [cytotoxic, partial curve, poor fit]","inconclusive: 4.18 µM [cytotoxic, full curve]",active: 4.69 µM,"inconclusive: 11.8 µM [cytotoxic, single point]",,,
CC(C)C(=O)Oc1ccc(CO)cc1[C@H](CCN(C(C)C)C(C)C)c1ccccc1,"inconclusive: 29.6 µM [cytotoxic, single point]",inactive,,inactive,,inactive,inactive,inactive,"inconclusive: 0.0033 µM [rising, full curve, poor fit]",,inactive,"inconclusive: 0.0187 µM [rising, full curve, poor fit]","inconclusive: 10.5 µM [cytotoxic, partial curve, poor fit]",,"inconclusive: 8.33 µM [cytotoxic, partial curve, poor fit]",inactive,,,
CC(=O)Nc1ccc([C@H](C)C(=O)Nc2ncc(C(C)C)s2)cc1,active: 1.87 µM,active: 0.743 µM,,,,,,"inconclusive: 37.2 µM [rising, single point]",active: 4.69 µM,,active: 1.66 µM,,"inconclusive: 3.32 µM [cytotoxic, full curve, poor fit]",,active: 1.48 µM,"inconclusive: 10.5 µM [cytotoxic, partial curve, poor fit]",,,
CCC1(c2ccccc2)C(=O)NCNC1=O,inactive,inactive,,,,inactive,"inconclusive: 16.6 µM [cytotoxic, partial curve]",,,,"inconclusive: 37.2 µM [cytotoxic, single point]",,"inconclusive: 0.0017 µM [rising, full curve, poor fit]",,active: 2.96 µM,"inconclusive: 3.72 µM [cytotoxic, full curve, poor fit]",,,
O=c1[nH]cc(F)c(=O)[nH]1,"inconclusive: 0.0013 µM [cytotoxic, full curve, poor fit]",,"inconclusive: 4.69 µM [cytotoxic, full curve]",,"inconclusive: 7.43 µM [cytotoxic, full curve, poor fit]",,,,"inconclusive: 23.5 µM [cytotoxic, partial curve, poor fit]",,"inconclusive: 13.2 µM [cytotoxic, partial curve]",,"inconclusive: 2.96 µM [cytotoxic, partial curve, poor fit]",,"inconclusive: 14.8 µM [cytotoxic, partial curve]","inconclusive: 18.7 µM [cytotoxic, partial curve, poor fit]","inconclusive: 20.9 µM [cytotoxic, partial curve, poor fit]",,
CC(C=CC1=C(C)CCCC1(C)C)=CC=CC(C)=CC(=O)O,"inconclusive: 37.2 µM [cytotoxic, single point] and inconclusive: 13.2 µM [cytotoxic, partial curve, poor fit]","inconclusive: 11.8 µM [cytotoxic, partial curve]","inconclusive: 16.6 µM [cytotoxic, partial curve] and inconclusive: 9.35 µM [cytotoxic, partial curve]","inconclusive: 23.5 µM [cytotoxic, partial curve] and inconclusive: 14.8 µM [cytotoxic, partial curve]","inconclusive: 3.72 µM [cytotoxic, partial curve]","inconclusive: 20.9 µM [cytotoxic, partial curve] and inconclusive: 18.7 µM [cytotoxic, partial curve]","inactive and inconclusive: 3.32 µM [cytotoxic, full curve]","inconclusive: 37.2 µM [cytotoxic, single point] and inconclusive: 13.2 µM [cytotoxic, partial curve, poor fit]","inconclusive: 29.6 µM [cytotoxic, single point] and active: 5.9 µM",,"inconclusive: 20.9 µM [cytotoxic, partial curve, poor fit] and inconclusive: 1.66 µM [cytotoxic, full curve]",,active: 5.9 µM and active: 1.66 µM,active: 14.8 µM and active: 11.8 µM,,"inconclusive: 37.2 µM [cytotoxic, single point]",,,
O=C(O)C=Cc1ccc(O)c(O)c1,"inconclusive: 33.2 µM [cytotoxic, partial curve, poor fit]",,"inconclusive: 11.8 µM [cytotoxic, partial curve]",,"inconclusive: 16.6 µM [cytotoxic, partial curve]",,"inconclusive: 18.7 µM [cytotoxic, partial curve]",,inactive,,"inconclusive: 29.6 µM [cytotoxic, partial curve, poor fit]","inconclusive: 13.2 µM [cytotoxic, partial curve, poor fit]",active: 10.5 µM,,"inconclusive: 37.2 µM [cytotoxic, single point]",,"inconclusive: 20.9 µM [cytotoxic, partial curve, poor fit]",,
COc1ccccc1OCC(O)CN1CCN(CC(=O)Nc2c(C)cccc2C)CC1 (centres undefined),inactive,,inactive,inactive,inactive,"inconclusive: 10.5 µM [rising, partial curve, poor fit]",inactive,,"inconclusive: 6.62 µM [rising, partial curve, poor fit]",,,,"inconclusive: 0.0743 µM [rising, full curve, poor fit]",inactive,"inconclusive: 13.2 µM [rising, partial curve, poor fit]",,"inconclusive: 0.0209 µM [rising, full curve, poor fit]",,
CC[C@]1(O)C[C@H]2CN(CCc3c([nH]c4ccccc34)[C@@](C(=O)OC)(c3cc4c(cc3OC)N(C=O)[C@H]3[C@@](O)(C(=O)OC)[C@H](OC(C)=O)[C@]5(CC)C=CCN6CC[C@]43[C@@H]65)C2)C1,inactive,"inconclusive: 0.0074 µM [cytotoxic, full curve]",,,active: 0.0662 µM,,active: 0.0469 µM,active: 0.935 µM,"inconclusive: 0.0066 µM [cytotoxic, full curve]","inconclusive: 0.0017 µM [cytotoxic, full curve]",active: 0.0209 µM,,,,active: 0.0047 µM,active: 0.0166 µM,,inconclusive: 7.9% [cytotoxic],
Oc1ccc(C2=Cc3ccc(O)cc3OC2)cc1,active: 1.32 µM,,,,,"inconclusive: 13.2 µM [cytotoxic, partial curve]",,active: 2.64 µM,,"inconclusive: 16.6 µM [cytotoxic, partial curve]",active: 3.32 µM,active: 0.662 µM,,"inconclusive: 18.7 µM [cytotoxic, partial curve]",active: 0.833 µM,,,,
C[N+](C)(C)CC(=O)O,inactive,,inconclusive: 0.001 µM,"inconclusive: 0.0166 µM [rising, full curve, poor fit]",,"inconclusive: 0.0015 µM [rising, full curve, poor fit]",,inactive,inactive,"inconclusive: 23.5 µM [cytotoxic, partial curve]",,"inconclusive: 26.4 µM [cytotoxic, single point]","inconclusive: 11.8 µM [rising, partial curve, poor fit]",,"inconclusive: 0.0066 µM [rising, full curve, poor fit]",inconclusive: 0.001 µM,"inconclusive: 0.0021 µM [rising, full curve, poor fit]",,inconclusive: 119%
Nc1nc2ccc(OC(F)(F)F)cc2s1,"inconclusive: 33.2 µM [cytotoxic, partial curve, poor fit]",,"inconclusive: 20.9 µM [cytotoxic, partial curve]","inconclusive: 16.6 µM [cytotoxic, partial curve, poor fit]",,,,"inconclusive: 33.2 µM [cytotoxic, partial curve, poor fit]",inactive,,"inconclusive: 20.9 µM [cytotoxic, partial curve, poor fit]",,,,active: 13.2 µM,inactive,,,
